According to PubChem BioAssay (NCATS):
The inconclusive results got no clear call from the source; some entries with a clear call stand among them for comparison. For some of these results: A potency beside an inconclusive call is a rough fit, not a confirmed value. Calls of active or inactive are those of the source. Unless noted, calls follow the shape of the dose curve; as a rule, active = well fitted curve in the direction sought with a large enough effect; inconclusive = small, poorly fitted or top-dose-only effect, or another doubt; inactive = no such curve, though single readings can be large; an effect the other way counts as inactive or inconclusive.

Protein sequences, listed by entry. Tags and fused reporters are not part of them. Lines headed by an entry give the natural chain unless they say otherwise; changes in a name come on top.
UniProt P10635, whole entry, looked up: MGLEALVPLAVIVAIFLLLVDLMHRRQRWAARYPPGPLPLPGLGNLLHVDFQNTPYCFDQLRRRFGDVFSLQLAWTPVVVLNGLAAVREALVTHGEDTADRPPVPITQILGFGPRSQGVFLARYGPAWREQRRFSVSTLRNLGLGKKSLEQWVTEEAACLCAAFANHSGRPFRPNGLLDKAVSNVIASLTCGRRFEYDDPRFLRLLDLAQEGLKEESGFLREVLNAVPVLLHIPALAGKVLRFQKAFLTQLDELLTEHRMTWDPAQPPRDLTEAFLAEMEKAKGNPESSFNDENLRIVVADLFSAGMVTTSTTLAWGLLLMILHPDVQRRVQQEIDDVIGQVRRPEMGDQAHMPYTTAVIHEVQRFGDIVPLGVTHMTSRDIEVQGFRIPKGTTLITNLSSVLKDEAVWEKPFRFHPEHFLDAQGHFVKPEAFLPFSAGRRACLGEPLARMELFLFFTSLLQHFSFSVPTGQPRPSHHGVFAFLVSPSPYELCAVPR
UniProt P11712, whole entry, looked up: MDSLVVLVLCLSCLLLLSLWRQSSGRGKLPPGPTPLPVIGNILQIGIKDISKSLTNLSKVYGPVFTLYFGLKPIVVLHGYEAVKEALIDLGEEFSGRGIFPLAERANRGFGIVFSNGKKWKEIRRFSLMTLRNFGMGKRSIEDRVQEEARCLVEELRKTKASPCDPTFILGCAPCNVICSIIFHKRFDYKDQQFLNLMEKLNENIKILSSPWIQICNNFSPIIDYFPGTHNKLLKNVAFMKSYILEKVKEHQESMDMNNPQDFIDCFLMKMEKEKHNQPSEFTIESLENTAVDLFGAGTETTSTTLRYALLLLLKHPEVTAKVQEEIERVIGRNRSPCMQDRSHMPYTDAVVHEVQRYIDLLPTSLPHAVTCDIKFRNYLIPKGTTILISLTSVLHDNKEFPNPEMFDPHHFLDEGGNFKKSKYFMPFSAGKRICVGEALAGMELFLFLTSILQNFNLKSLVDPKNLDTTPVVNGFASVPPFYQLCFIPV
UniProt O75469: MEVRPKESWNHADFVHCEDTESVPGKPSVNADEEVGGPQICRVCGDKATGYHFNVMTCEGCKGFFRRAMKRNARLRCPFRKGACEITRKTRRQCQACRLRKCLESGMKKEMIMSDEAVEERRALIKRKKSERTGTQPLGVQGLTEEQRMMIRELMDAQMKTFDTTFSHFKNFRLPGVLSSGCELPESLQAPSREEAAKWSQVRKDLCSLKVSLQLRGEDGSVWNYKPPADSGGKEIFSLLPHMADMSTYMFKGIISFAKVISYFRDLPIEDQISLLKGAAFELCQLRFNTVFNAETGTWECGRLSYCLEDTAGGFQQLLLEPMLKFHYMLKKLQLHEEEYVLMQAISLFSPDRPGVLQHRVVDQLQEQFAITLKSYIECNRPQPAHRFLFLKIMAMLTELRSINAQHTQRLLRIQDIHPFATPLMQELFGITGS

Tests used:
[1] = Quantitative High-Throughput drug screen in 47 multiple myeloma cell lines against the NCATS MIPE library collection: XG6_PLB cell viability assay (AID 1919865); conditions: XG6 myeloma viability, CellTiter-Glo ATP luminescence, 48 h; viability (% of control): at 45.8 µM (top of the series); also: nearly all actives have a fitted effect of over 40% in size
In short: (§1)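 ATP-based CellTiter-Glo luminescence after 48 h drug exposure (37 °C, 5% CO2) of 500 myeloma cells per well. DMSO-only wells set 100% viability, media-only wells 0%; MIPE 4.0 library added by pin tool.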

[2] = Quantitative High-Throughput drug screen in 47 multiple myeloma cell lines against the NCATS MIPE library collection: XG1_PLB cell viability assay (AID 1919866); conditions: CellTiter-Glo ATP, 48 h; viability: at 45.8 µM (top of the series); also: nearly all actives have a fitted effect of over 35% in size
In short: as §1

[3] = Quantitative High-Throughput drug screen in 47 multiple myeloma cell lines against the NCATS MIPE library collection: VP6_DJ cell viability assay (AID 1919867); conditions: ATP luminescence, 48 h; viability (% of DMSO): at 45.8 µM (top of the series); also: nearly all actives have a fitted effect of over 40% in size
In short: as §1

[4] = Quantitative High-Throughput drug screen in 47 multiple myeloma cell lines against the NCATS MIPE library collection: UTMC2_PLB cell viability assay (AID 1919868); conditions: CellTiter-Glo ATP luminescence, 48 h; viability (% of DMSO control): at 45.8 µM (top of the series); also: nearly all actives have a fitted effect of over 55% in size
In short: as §1

[5] = Quantitative High-Throughput drug screen in 47 multiple myeloma cell lines against the NCATS MIPE library collection: PCM6_Riken cell viability assay (AID 1919870); conditions: CellTiter-Glo ATP, 48 h; viability (% of control): at 45.8 µM (top of the series); also: nearly all actives have a fitted effect of over 30% in size
In short: as §1

[6] = Quantitative High-Throughput drug screen in 47 multiple myeloma cell lines against the NCATS MIPE library collection: KMS28BM_JCRB cell viability assay (AID 1919874); also: nearly all actives have a fitted effect of over 35% in size
In short: as §1

[7] = target: Cytochrome P450 2D6 (Homo sapiens) (UniProt P10635); test: qHTS for inhibitors of CYP2D6 against the NCATS DSHEA and TCM libraries (AID 1919972); conditions: CYP2D6 enzymatic inhibition, luminescence qHTS
In short: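 CYP2D6 enzyme with pro-luciferin substrate in manufacturer buffer (typically 100 mM KPO4), preincubated 15 min RT with substances (most at 19.5 nM upward); NADPH regeneration system (1x) started 30–45 min RT reaction; P450-Glo luminescence read after 30 min; quinidine as intraplate control.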

[8] = target: Cytochrome P450 2C9 (Homo sapiens) (UniProt P11712); test: qHTS for inhibitors of CYP2C9 against the NCATS DSHEA and TCM libraries (AID 1919973)
In short: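 Each CYP isoform and its pro-luciferin substrate, at isoform-specific final concentrations, were preincubated 15 min at RT with substances. NADPH regeneration solution (1x) started a 30-45 min reaction, and P450-Glo luminescence was read.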

[9] = target: Nuclear receptor subfamily 1 group I member 2 (Homo sapiens) (UniProt O75469); test: Dual reporter qHTS for agonist of Pregnane X Receptor (hPXR) against the NCATS DSHEA and TCM libraries: Luminescence readout (AID 1920059); conditions: hPXR dual reporter cells, luciferase luminescence agonist
In short: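 Luminescent PXR reporter read (ONE-Glo) after a CellTiter-Fluor viability read, following 24 h, 37C treatment of HepG2 cells stably carrying hPXR-Luc.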

[10] = qHTS for identification of novel therapeutic agents for treatment of microphthalmiaassociated transcription factor (MiT) renal cell carcinoma (RCC) (AID 1963991; calls by dose curve); conditions: TFE3-RCC UOK109 viability, CellTiter-Glo, 48 h; active = Z-AUC below -0.8 in all three lines
In short: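 Three TFE3-fusion RCC lines (UOK109, UOK124, UOK145), 500 cells/well in complete medium, were treated with MIPE 4.0 compounds for 48 hours at 37 C. Viability was by CellTiter-Glo luminescence, normalized to DMSO (100%) and empty wells (0%); curves fitted over 11 concentrations.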

[11] = Quantitative High-Throughput drug screen in 47 multiple myeloma cell lines against the NCATS MIPE library collection: RPMI8226_ATCC cell viability assay (AID 1919871); also: nearly all actives have a fitted effect of over 30% in size
In short: as §1

[12] = Quantitative High-Throughput drug screen in 47 multiple myeloma cell lines against the NCATS MIPE library collection: KMS11_JCRBsus cell viability assay (AID 1919873); conditions: KMS11 myeloma viability, CellTiter-Glo ATP luminescence, 48 h; viability (% of control): at 45.8 µM (top of the series); also: nearly all actives have a fitted effect of over 50% in size
In short: as §1

[13] = Quantitative High-Throughput drug screen in 47 multiple myeloma cell lines against the NCATS MIPE library collection: PE2_PLB cell viability assay (AID 1919869); conditions: PE2_PLB myeloma cells viability, ATP luminescence, 48 h; viability (% of control): at 45.8 µM (top of the series); also: nearly all actives have a fitted effect of over 35% in size
In short: as §1

[14] = Quantitative High-Throughput drug screen in 47 multiple myeloma cell lines against the NCATS MIPE library collection: OPM2_DSMZ cell viability assay (AID 1919872); also: nearly all actives have a fitted effect of over 30% in size
In short: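 We plated 500 myeloma cells per well, pinned in MIPE 4.0 compounds, and incubated for 48 hours at 37C. ATP was then quantified with CellTiter-Glo, with DMSO and media-only wells defining 100% and 0%.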
Potency is read from the fitted curve at half-maximal effect.

Structure (SMILES)	Potency [1]	Potency [2]	Potency [3]	Potency [4]	Potency [5]	Potency [6]	Potency [7]	Potency [8]	Potency [9]	Potency [10]	Potency [11]	Potency [12]	Potency [13]	Potency [14]	viability (% of control) [12]
O=c1cc(-c2ccc(O)cc2)oc2cc(O)cc(O)c12	inconclusive: 0.935 µM [cytotoxic, full curve, poor fit]	inconclusive: 1.18 µM [cytotoxic, full curve]	inconclusive: 16.6 µM [cytotoxic, partial curve, poor fit]	inactive	inconclusive: 14.8 µM [cytotoxic, partial curve, poor fit]	inconclusive: 20.9 µM [cytotoxic, partial curve]	inconclusive: 14.1 µM [inhibitor, partial curve]	inconclusive: 15.8 µM [inhibitor, full curve, poor fit]	active: 31.6 µM	inconclusive: 13.2 µM [falling, partial curve]					
CC[C@]1(O)C[C@@H]2CN(CCc3c([nH]c4ccccc34)[C@@](C(=O)OC)(c3cc4c(cc3OC)N(C=O)[C@@H]3C45CCN4CC=C[C@](CC)([C@H]45)[C@@H](OC(C)=O)[C@]3(O)C(=O)OC)C2)C1 (stereo not given in full)	inconclusive: 26.4 µM [cytotoxic, single point]	inconclusive: 20.9 µM [cytotoxic, partial curve, poor fit]	inconclusive: 18.7 µM [cytotoxic, partial curve, poor fit]	inconclusive: 18.7 µM [cytotoxic, partial curve, poor fit]	inconclusive: 16.6 µM [cytotoxic, partial curve, poor fit]	inconclusive: 5.26 µM [cytotoxic, partial curve, poor fit]				inconclusive: 18.7 µM [falling, partial curve, poor fit]	inconclusive: 33.2 µM [cytotoxic, single point]	inconclusive: 5.26 µM [cytotoxic, partial curve, poor fit]			
CNCc1ccc(-c2[nH]c3cc(F)cc4c3c2CCNC4=O)cc1	inconclusive: 23.5 µM [cytotoxic, single point]	inconclusive: 37.2 µM [cytotoxic, single point]	inconclusive: 37.2 µM [cytotoxic, single point]	inconclusive: 33.2 µM [cytotoxic, single point]	inconclusive: 37.2 µM [cytotoxic, single point]	inconclusive: 11.8 µM [cytotoxic, single point]				inconclusive: 20.9 µM [falling, single point]		inconclusive: 11.8 µM [cytotoxic, single point]	inactive		
O=c1cc(N2CCOCC2)oc2c(-c3ccccc3)cccc12	inconclusive: 14.8 µM [cytotoxic, partial curve]	inconclusive: 5.9 µM [cytotoxic, partial curve]	inconclusive: 16.6 µM [cytotoxic, partial curve, poor fit]	inconclusive: 18.7 µM [cytotoxic, partial curve, poor fit]		inconclusive: 29.6 µM [cytotoxic, single point]				inconclusive: 3.72 µM [falling, partial curve]	inconclusive: 14.8 µM [cytotoxic, partial curve]	inconclusive: 2.64 µM [cytotoxic, full curve, poor fit]	inconclusive: 13.2 µM [cytotoxic, partial curve]		
COc1ccc2c3c1OC1C[C@@H](O)C=C[C@@]31CCN(C)C2 (stereo not given in full)	inconclusive: 3.32 µM [cytotoxic, full curve]	active: 5.9 µM	inconclusive: 16.6 µM [cytotoxic, partial curve, poor fit]	inconclusive: 1.48 µM [cytotoxic, full curve, poor fit]	inconclusive: 18.7 µM [cytotoxic, partial curve, poor fit]	inconclusive: 0.001 µM						inactive	inconclusive: 14.8 µM [cytotoxic, partial curve]		
O=c1cc(-c2ccccc2)oc2cc(O)c(O)c(O)c12	inconclusive: 16.6 µM [cytotoxic, single point]	inconclusive: 20.9 µM [cytotoxic, partial curve, poor fit]	inconclusive: 37.2 µM [cytotoxic, single point]	inconclusive: 0.0042 µM [cytotoxic, full curve, poor fit]						inconclusive: 8.33 µM [falling, partial curve, poor fit]			inconclusive: 33.2 µM [cytotoxic, single point]	inconclusive: 74.3 µM [cytotoxic, partial curve, poor fit]	inconclusive: 78.9% [cytotoxic]
CC=CC[C@@H](C)C(=O)[C@H]1C(=O)N[C@@H](C(C)C)C(=O)N(C)CC(=O)N(C)[C@@H](CC(C)C)C(=O)N[C@@H](C(C)C)C(=O)N(C)[C@@H](CC(C)C)C(=O)N[C@@H](C)C(=O)N[C@H](C)C(=O)N(C)[C@@H](CC(C)C)C(=O)N(C)[C@@H](CC(C)C)C(=O)N(C)[C@@H](C(C)C)C(=O)N1C	inconclusive: 23.5 µM [cytotoxic, single point]	inconclusive: 23.5 µM [cytotoxic, partial curve]	inconclusive: 23.5 µM [cytotoxic, partial curve, poor fit]	inconclusive: 20.9 µM [cytotoxic, partial curve, poor fit]		inconclusive: 16.6 µM [cytotoxic, partial curve]				inconclusive: 37.2 µM	active: 13.2 µM		inconclusive: 18.7 µM [cytotoxic, partial curve]		
Cc1c(OCC(F)(F)F)ccnc1CS(=O)c1nc2ccccc2[nH]1 (stereo not given)	inconclusive: 16.6 µM [cytotoxic, partial curve, poor fit]	inconclusive: 23.5 µM [cytotoxic, partial curve]	inconclusive: 13.2 µM [cytotoxic, partial curve, poor fit]	inconclusive: 0.187 µM [rising, full curve, poor fit]	inconclusive: 16.6 µM [cytotoxic, partial curve, poor fit]							inconclusive: 0.0209 µM [rising, full curve, poor fit]	inconclusive: 26.4 µM [cytotoxic, single point]		
Cc1[nH]c(=O)c(C#N)cc1-c1ccc2nccn2c1	inactive	inactive	inconclusive: 5.26 µM [cytotoxic, partial curve, poor fit]	inconclusive: 0.935 µM [rising, full curve]	active: 2.64 µM							inactive			
CC[C@@H](C)[C@H](NC(=O)[C@H](CC1CCCCC1)NC(=O)c1ccno1)C(=O)N1CCC2(CCc3ccccc32)CC1	inconclusive: 23.5 µM [cytotoxic, single point]	inconclusive: 0.0296 µM [rising, full curve, poor fit]	inconclusive: 0.0105 µM [rising, full curve]	inconclusive: 13.2 µM [cytotoxic, partial curve, poor fit]	inconclusive: 0.0042 µM [rising, full curve, poor fit]	inactive						inconclusive: 0.0264 µM [rising, full curve, poor fit]		active: 11.8 µM	
Oc1ccc(C=Cc2cc(O)cc(O)c2)cc1	inconclusive: 33.2 µM [cytotoxic, single point]	inconclusive: 1.48 µM [cytotoxic, full curve, poor fit]	inconclusive: 3.72 µM [cytotoxic, full curve, poor fit]	inconclusive: 16.6 µM [cytotoxic, partial curve, poor fit]						inconclusive: 20.9 µM [falling, partial curve, poor fit]			inconclusive: 37.2 µM [cytotoxic, single point]		
CC(C)(O)[C@H]1CC[C@@](C)([C@H]2[C@@H](O)C[C@@]3(C)[C@@H]4C[C@H](O[C@@H]5O[C@H](CO)[C@@H](O)[C@H](O)[C@@H]5O)[C@H]5C(C)(C)[C@@H](O[C@@H]6OC[C@@H](O)[C@H](O)[C@@H]6O)CC[C@@]56C[C@@]46CC[C@]23C)O1	inconclusive: 0.0148 µM [rising, full curve, poor fit]	inactive	inconclusive: 0.0105 µM [rising, full curve, poor fit]	inactive									inconclusive: 0.001 µM [cytotoxic]		
O=c1cc(-c2ccccc2)oc2cc(O)cc(O)c12	inconclusive: 20.9 µM [cytotoxic, partial curve]	inconclusive: 23.5 µM [cytotoxic, single point]	inconclusive: 8.33 µM [cytotoxic, full curve, poor fit]	inconclusive: 4.69 µM [rising, partial curve, poor fit]								inconclusive: 4.69 µM [cytotoxic, partial curve, poor fit]	inconclusive: 37.2 µM [cytotoxic, partial curve, poor fit]		
COc1ccc(CC2=NN3C([C@@H](CCc4ccccc4)[C@@H](C)O)=NC(C)C3C(=O)N2)cc1OC (stereo not given in full)	inconclusive: 0.0053 µM [rising, full curve, poor fit]	inactive	inconclusive: 0.0042 µM [rising, full curve, poor fit]	inconclusive: 6.62 µM [rising, partial curve, poor fit]								inactive	inactive		
CC(C)c1ccc2c(c1)c(SC(C)(C)C)c(CC(C)(C)C(=O)O)n2Cc1ccc(Cl)cc1	inconclusive: 33.2 µM [cytotoxic, single point]	active: 23.5 µM	inconclusive: 2.35 µM [cytotoxic, full curve, poor fit]	inconclusive: 1.05 µM [cytotoxic, partial curve, poor fit]	inconclusive: 37.2 µM [cytotoxic, single point]	inconclusive: 6.62 µM [cytotoxic, full curve, poor fit]				inconclusive: 20.9 µM [falling, partial curve]	inconclusive: 18.7 µM [cytotoxic, partial curve]	inconclusive: 0.0083 µM [cytotoxic, full curve, poor fit]	inconclusive: 14.8 µM [cytotoxic, partial curve]		

Copied from the list:
Entry for Oc1ccc(C=Cc2cc(O)cc(O)c2)cc1 under Potency [13]: inconclusive: 37.2 µM [cytotoxic, single point]
Entry for CC[C@]1(O)C[C@@H]2CN(CCc3c([nH]c4ccccc34)[C@@](C(=O)OC)(c3cc4c(cc3OC)N(C=O)[C@@H]3C45CCN4CC=C[C@](CC)([C@H]45)[C@@H](OC(C)=O)[C@]3(O)C(=O)OC)C2)C1 (stereo not given in full) under Potency [5]: inconclusive: 16.6 µM [cytotoxic, partial curve, poor fit]
